# Results: the supplement of paper PMC10849652
# The chains behind the UniProt entries cited, without tags or fusion partners. Where a name states a change or a piece, a line headed by the entry shows the natural chain unless it says otherwise.
# UniProt O14526: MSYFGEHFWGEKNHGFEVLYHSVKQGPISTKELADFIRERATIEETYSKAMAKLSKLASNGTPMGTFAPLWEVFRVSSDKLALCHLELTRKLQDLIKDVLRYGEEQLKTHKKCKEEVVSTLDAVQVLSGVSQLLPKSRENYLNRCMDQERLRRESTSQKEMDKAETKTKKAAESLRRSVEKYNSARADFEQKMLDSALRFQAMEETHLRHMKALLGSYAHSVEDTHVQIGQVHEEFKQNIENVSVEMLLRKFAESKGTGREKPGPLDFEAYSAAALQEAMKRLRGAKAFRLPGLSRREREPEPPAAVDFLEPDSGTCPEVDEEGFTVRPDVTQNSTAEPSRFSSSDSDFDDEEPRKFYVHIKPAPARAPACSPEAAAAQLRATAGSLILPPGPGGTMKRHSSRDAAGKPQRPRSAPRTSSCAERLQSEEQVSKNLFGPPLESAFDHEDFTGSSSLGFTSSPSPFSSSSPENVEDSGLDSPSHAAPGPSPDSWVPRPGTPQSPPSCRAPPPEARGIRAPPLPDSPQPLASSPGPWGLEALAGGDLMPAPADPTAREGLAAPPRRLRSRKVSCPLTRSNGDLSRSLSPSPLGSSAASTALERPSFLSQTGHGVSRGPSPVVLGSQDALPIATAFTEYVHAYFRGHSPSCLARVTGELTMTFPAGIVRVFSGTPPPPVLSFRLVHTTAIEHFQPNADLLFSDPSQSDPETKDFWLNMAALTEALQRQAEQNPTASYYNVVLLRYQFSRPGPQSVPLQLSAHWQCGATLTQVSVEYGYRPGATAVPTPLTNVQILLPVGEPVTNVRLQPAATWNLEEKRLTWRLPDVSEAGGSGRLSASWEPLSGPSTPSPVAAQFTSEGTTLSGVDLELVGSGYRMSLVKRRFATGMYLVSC
# UniProt P62942, whole entry, looked up: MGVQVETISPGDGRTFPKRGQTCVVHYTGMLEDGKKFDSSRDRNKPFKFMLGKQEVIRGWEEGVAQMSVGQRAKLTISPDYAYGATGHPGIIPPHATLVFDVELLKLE
# UniProt O95684: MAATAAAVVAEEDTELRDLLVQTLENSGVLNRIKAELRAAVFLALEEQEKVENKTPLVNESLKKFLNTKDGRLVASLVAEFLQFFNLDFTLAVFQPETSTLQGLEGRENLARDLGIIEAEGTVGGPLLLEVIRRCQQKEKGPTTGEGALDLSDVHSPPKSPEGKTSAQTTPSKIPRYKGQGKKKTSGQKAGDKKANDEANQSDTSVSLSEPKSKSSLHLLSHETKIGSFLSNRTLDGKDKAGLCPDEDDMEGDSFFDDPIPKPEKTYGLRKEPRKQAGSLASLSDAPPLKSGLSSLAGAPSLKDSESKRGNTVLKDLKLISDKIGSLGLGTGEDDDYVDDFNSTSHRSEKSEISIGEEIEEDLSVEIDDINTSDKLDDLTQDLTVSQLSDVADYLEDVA
# UniProt Q96C11: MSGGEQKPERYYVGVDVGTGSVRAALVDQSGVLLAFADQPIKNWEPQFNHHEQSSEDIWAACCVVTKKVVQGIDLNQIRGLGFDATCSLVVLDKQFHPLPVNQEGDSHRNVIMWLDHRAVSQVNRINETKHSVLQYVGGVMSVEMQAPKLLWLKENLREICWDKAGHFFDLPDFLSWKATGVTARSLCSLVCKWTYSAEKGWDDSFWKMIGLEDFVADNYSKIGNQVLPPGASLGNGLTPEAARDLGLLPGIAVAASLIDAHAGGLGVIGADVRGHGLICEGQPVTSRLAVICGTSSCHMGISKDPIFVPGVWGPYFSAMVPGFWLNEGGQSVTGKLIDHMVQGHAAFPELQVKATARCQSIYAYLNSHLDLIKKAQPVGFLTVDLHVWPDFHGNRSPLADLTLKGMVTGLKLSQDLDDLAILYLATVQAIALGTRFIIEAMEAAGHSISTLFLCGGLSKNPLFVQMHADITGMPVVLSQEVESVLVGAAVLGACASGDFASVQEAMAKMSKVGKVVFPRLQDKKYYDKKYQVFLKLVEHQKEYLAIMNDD
# UniProt Q5XUX1: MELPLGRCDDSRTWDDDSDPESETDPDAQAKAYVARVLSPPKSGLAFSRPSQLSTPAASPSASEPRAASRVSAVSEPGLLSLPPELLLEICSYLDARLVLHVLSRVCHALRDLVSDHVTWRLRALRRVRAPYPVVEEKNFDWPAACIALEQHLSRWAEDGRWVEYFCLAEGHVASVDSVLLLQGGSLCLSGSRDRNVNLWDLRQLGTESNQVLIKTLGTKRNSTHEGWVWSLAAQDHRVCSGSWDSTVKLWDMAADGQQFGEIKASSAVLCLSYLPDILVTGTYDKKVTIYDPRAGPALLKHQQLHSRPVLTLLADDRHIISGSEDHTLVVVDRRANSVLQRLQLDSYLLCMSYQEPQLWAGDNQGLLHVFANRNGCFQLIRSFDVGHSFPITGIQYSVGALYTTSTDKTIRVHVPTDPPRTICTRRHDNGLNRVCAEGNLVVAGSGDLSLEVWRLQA
# UniProt Q8NFG4: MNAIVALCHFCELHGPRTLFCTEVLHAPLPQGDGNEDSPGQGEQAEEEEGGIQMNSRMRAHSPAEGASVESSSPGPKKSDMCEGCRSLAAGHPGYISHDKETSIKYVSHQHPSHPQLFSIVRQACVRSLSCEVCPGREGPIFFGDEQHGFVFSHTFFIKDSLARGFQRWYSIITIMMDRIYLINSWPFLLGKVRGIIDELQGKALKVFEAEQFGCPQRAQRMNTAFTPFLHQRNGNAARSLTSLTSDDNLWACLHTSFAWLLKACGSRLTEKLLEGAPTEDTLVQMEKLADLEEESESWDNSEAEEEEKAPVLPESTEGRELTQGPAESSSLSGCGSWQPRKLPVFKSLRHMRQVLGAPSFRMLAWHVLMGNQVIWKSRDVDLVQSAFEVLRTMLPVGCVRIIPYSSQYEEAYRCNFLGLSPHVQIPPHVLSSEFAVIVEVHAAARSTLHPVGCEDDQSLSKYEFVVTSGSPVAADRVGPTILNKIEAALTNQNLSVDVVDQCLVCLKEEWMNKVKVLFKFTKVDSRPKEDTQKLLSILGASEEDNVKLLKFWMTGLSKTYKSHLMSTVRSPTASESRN
# UniProt Q9NXK8: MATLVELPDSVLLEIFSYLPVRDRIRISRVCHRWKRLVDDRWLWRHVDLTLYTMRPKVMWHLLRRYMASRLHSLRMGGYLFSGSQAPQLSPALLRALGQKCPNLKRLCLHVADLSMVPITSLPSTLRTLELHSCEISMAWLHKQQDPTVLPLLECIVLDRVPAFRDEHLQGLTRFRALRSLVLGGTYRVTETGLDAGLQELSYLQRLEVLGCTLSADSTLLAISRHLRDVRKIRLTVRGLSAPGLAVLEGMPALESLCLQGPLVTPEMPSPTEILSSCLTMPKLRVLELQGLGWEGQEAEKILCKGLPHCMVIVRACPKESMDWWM
# UniProt O75369, whole entry, looked up: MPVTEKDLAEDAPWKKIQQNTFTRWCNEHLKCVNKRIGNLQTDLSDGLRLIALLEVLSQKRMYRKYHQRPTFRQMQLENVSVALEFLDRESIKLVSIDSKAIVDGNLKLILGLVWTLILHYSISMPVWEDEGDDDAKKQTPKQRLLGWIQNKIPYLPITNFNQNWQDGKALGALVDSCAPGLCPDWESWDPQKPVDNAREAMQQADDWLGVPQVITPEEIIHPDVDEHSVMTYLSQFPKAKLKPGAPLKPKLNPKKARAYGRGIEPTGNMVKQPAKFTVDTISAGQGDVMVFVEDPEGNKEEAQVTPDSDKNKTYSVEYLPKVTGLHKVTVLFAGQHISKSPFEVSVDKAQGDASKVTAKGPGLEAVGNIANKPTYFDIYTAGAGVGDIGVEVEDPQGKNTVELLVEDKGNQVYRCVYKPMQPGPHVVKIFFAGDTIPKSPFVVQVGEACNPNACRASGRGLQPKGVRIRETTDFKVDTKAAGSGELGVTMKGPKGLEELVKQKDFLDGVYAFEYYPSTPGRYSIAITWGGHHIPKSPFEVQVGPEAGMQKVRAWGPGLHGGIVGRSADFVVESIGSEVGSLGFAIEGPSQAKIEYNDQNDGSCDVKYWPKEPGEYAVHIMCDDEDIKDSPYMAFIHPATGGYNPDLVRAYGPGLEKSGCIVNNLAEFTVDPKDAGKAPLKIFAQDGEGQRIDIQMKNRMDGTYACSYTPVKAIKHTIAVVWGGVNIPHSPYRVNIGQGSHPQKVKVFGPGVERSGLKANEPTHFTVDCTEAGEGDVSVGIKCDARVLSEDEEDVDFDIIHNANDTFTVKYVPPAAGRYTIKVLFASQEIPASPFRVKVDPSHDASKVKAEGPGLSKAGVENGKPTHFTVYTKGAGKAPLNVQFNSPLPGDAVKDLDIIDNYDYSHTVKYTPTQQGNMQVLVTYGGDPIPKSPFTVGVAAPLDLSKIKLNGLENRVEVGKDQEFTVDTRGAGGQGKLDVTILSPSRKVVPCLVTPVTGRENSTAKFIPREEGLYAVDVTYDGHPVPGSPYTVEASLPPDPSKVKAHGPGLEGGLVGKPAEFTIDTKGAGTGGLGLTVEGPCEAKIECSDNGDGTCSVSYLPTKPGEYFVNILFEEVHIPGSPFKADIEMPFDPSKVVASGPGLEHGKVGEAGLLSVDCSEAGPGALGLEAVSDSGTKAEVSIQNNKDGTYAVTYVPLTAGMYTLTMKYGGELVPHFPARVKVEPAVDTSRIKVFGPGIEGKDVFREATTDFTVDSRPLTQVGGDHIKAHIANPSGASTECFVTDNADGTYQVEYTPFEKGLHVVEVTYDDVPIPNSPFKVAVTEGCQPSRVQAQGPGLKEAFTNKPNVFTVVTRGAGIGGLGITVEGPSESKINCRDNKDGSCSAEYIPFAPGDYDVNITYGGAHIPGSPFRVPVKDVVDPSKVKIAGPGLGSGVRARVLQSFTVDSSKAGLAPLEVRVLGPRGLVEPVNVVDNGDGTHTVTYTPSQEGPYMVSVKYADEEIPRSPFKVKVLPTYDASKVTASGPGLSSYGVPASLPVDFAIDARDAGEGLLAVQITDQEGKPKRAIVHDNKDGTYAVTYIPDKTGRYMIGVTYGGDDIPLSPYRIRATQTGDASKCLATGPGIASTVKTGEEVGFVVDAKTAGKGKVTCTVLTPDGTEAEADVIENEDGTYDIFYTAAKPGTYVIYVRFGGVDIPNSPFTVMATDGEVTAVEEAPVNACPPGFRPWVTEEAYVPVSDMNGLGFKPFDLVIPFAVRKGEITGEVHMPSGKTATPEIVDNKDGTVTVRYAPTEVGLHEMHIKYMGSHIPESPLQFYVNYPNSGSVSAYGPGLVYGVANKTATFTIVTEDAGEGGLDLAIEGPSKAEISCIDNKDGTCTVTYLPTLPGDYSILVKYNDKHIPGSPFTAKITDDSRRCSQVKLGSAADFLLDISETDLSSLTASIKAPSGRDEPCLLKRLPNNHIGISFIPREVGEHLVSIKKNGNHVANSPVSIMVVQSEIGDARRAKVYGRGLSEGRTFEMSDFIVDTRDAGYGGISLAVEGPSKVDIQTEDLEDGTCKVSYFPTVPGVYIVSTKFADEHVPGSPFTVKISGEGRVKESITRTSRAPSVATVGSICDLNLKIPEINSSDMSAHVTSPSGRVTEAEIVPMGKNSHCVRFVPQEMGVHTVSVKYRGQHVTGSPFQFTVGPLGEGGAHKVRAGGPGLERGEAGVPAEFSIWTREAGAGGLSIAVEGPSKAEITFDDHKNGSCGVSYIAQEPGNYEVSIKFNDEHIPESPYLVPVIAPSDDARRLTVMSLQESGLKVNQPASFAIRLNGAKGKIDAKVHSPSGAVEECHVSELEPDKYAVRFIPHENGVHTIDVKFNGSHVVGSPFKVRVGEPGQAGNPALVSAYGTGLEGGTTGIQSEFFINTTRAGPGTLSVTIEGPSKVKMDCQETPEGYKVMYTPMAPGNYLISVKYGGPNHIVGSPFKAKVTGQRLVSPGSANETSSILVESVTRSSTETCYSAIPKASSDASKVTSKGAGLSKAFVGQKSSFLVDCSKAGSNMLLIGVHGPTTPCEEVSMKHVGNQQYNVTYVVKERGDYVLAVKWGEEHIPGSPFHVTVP
# The list shows a part of the results.
# How the values were obtained:
# Assay in all cases: log2 fold change, soluble protein after heating vs DMSO (PISA); higher = thermal stabilisation; K562 lysate, 10 uM; active = over 0.2 and 3.5 SD of the protein, either way, in both replicates (recomputed)
# [1] = compound: CS(=O)(=O)CCNCc1ccc(-c2ccc3ncnc(Nc4ccc(OCc5cccc(F)c5)c(Cl)c4)c3c2)o1 [lapatinib]
# How it was run: (§1)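 Soluble protein was defined as the supernatant remaining after 21,000xg for 90 min, following pooling of heated aliquots and adjustment to 0.5% NP-40 at 4°C. Before that, crude K562 extract at 1 mg/mL protein in PBS pH 7.4 with 1 mM MgCl2 was treated with 10 μM compound for 30 min and heated for 3 min across 48°C-58°C. Quantification used TMTpro 16plex LC-MS/MS with channel sums equalised, and values are log-two fold changes in thermal stability relative to solvent controls from duplicates.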
# [2] = compound: CS(=O)(=O)N1CCN(Cc2cc3nc(-c4cccc5[nH]ncc45)nc(N4CCOCC4)c3s2)CC1 [pictilisib]
# How it was run: as §1
# [3] = compound: C[C@@H](Oc1cc(-c2cnn(C3CCNCC3)c2)cnc1N)c1c(Cl)ccc(F)c1Cl [crizotinib]
# How it was run: as §1
# [4] = compound: C[C@H](C1=CC=C(C=C1)C(=O)NC2=C3C=CNC3=NC=C2)N
# How it was run: as §1
# [5] = compound: C[C@H](Nc1ncnc2nc[nH]c12)c1cc2cccc(Cl)c2c(=O)n1-c1ccccc1 [duvelisib]
# How it was run: as §1
# [6] = compound: Cc1cc(Nc2cc(CN3CCOCC3)c3nc(C)c(Cc4ccc(Cl)cc4F)n3n2)n[nH]1 [gandotinib]
# How it was run: as §1
# [7] = compound: Cc1cc(Nc2cc(N3CCN(C)CC3)nc(Sc3ccc(NC(=O)C4CC4)cc3)n2)n[nH]1 [tozasertib]
# How it was run: as §1
# [8] = compound: Cc1ccc(-n2nc(C(C)(C)C)cc2NC(=O)Nc2ccc(OCCN3CCOCC3)c3ccccc23)cc1 [doramapimod]
# How it was run: as §1
# [9] = compound: Cc1ccc(NC(=O)c2ccc(CN3CC[C@H](N(C)C)C3)c(C(F)(F)F)c2)cc1Nc1nccc(-c2cncnc2)n1 [bafetinib]
# How it was run: as §1
# [10] = compound: Cc1cccc(CC(=O)N2CCc3c2ccc(-c2cn(C)c4ncnc(N)c24)c3F)n1
# How it was run: as §1
# [11] = compound: Cc1cn(-c2cc(NC(=O)c3ccc(C)c(Nc4nccc(-c5cccnc5)n4)c3)cc(C(F)(F)F)c2)cn1 [nilotinib]
# How it was run: as §1
# [12] = compound: Cc1nc(Nc2n[nH]c3c2CN(C(=O)N[C@H](CN(C)C)c2ccccc2)C3(C)C)c2sccc2n1
# How it was run: as §1
# [13] = compound: Cc1nc(Nc2ncc(C(=O)Nc3c(C)cccc3Cl)s2)cc(N2CCN(CCO)CC2)n1 [dasatinib]
# How it was run: as §1
# [14] = compound: Cc1ncc(-c2ccnc(Nc3ccc(S(C)(=O)=O)cc3)n2)n1C(C)C
# How it was run: as §1
# [15] = compound: Cn1cc(-c2ccc3c(c2)CCN3C(=O)Cc2cccc(C(F)(F)F)c2)c2c(N)ncnc21
# How it was run: as §1
# [16] = compound: Cn1cc(CNCC2CCN(c3ncc(C(=O)NO)cn3)CC2)c2ccccc21 [quisinostat]
# How it was run: as §1
# [17] = compound: Cn1cncc1[C@@](N)(c1ccc(Cl)cc1)c1ccc2c(c1)c(-c1cccc(Cl)c1)cc(=O)n2C [tipifarnib]
# How it was run: as §1
# [18] = compound: NC(=O)Nc1cc(-c2cccc(F)c2)sc1C(=O)N[C@H]1CCCNC1
# How it was run: as §1
# [19] = compound: NC(=O)c1cnc(N[C@@H]2CCCC[C@@H]2N)nc1Nc1cccc(-n2nccn2)c1
# How it was run: as §1
# [20] = compound: NC1(c2ccc(-c3nc4ccn5c(=O)[nH]nc5c4cc3-c3ccccc3)cc2)CCC1
# How it was run: as §1
Target,log2 fold change [1],log2 fold change [2],log2 fold change [3],log2 fold change [4],log2 fold change [5],log2 fold change [6],log2 fold change [7],log2 fold change [8],log2 fold change [9],log2 fold change [10],log2 fold change [11],log2 fold change [12],log2 fold change [13],log2 fold change [14],log2 fold change [15],log2 fold change [16],log2 fold change [17],log2 fold change [18],log2 fold change [19],log2 fold change [20]
FCHO1 (UniProt O14526),inactive: -0.034,inactive: 0.027,inactive: -0.072,inactive: -0.061,inactive: -0.025,inactive: -0.027,inactive: 0.027,inactive: -0.039,inactive: -0.141,inactive: 0.058,inactive: 0.007,inactive: -0.02,inactive: -0.022,inactive: 0.035,inactive: 0.02,inactive: 0.013,inactive: -0.025,inactive: 0.063,inactive: 0.006,inactive: 0.007
FKBP1A (UniProt P62942),inactive: -0.011,inactive: -0.031,inactive: 0.005,active: -0.814,inactive: 0.074,inactive: 0.266,inactive: -0.037,inactive: -0.04,inactive: -0.111,inactive: 0.15,inactive: 0.023,inactive: 0.002,inactive: -0.005,inactive: 0.081,inactive: -0.103,inactive: 0.012,inactive: 0.038,inactive: -0.005,inactive: 0.002,inactive: -0.039
FGFR1OP (UniProt O95684),inactive: 0.001,inactive: -0.016,inactive: -0.007,inactive: -0.024,inactive: -0.012,inactive: 0.059,inactive: 0.036,inactive: 0,inactive: -0.031,inactive: 0.002,inactive: 0.008,inactive: -0.044,inactive: -0.019,inactive: 0.01,inactive: -0.02,inactive: -0.043,inactive: -0.008,inactive: -0.02,inactive: -0.011,inactive: -0.013
FGGY isoform 3 (UniProt Q96C11),inactive: -0.008,inactive: 0.191,inactive: -0.005,inactive: 0.249,inactive: -0.035,inactive: -0.064,inactive: 0.119,inactive: 0.046,inactive: -0.006,inactive: -0.139,inactive: 0.199,inactive: -0.218,inactive: -0.029,inactive: -0.041,inactive: -0.054,inactive: -0.057,inactive: 0.056,inactive: 0.018,inactive: 0.083,inactive: -0.1
FBXW9 (UniProt Q5XUX1),inactive: -0.028,inactive: 0.029,inactive: -0.138,inactive: 0.027,inactive: 0.05,inactive: -0.047,inactive: 0.008,inactive: -0.051,inactive: -0.054,inactive: 0.02,inactive: -0.052,inactive: 0.004,inactive: -0.012,inactive: 0.065,inactive: -0.027,inactive: -0.239,inactive: 0.024,inactive: 0.023,inactive: 0.004,inactive: -0.028
FLCN (UniProt Q8NFG4),inactive: -0.039,inactive: 0.009,inactive: -0.025,inactive: -0.029,inactive: -0.005,inactive: -0.051,inactive: 0.075,inactive: 0.061,inactive: 0.026,inactive: 0.033,inactive: 0.049,inactive: -0.033,inactive: -0.08,inactive: -0.119,inactive: 0.243,inactive: -0.049,inactive: -0.058,inactive: 0,inactive: 0.024,inactive: -0.011
FBXL12 (UniProt Q9NXK8),inactive: 0.009,inactive: 0.028,inactive: -0.047,inactive: -0.028,inactive: 0.026,inactive: -0.013,inactive: -0.026,inactive: -0.026,inactive: -0.003,inactive: 0.009,inactive: -0.025,inactive: -0.035,inactive: -0.089,inactive: 0.069,inactive: -0.046,inactive: 0.063,inactive: 0.063,inactive: 0.054,inactive: -0.008,inactive: -0.006
FLNB isoform 8 (UniProt O75369),inactive: -0.005,inactive: -0.016,inactive: -0.005,inactive: -0.055,inactive: -0.008,inactive: 0.025,inactive: -0.006,inactive: -0.002,inactive: 0.01,inactive: 0.019,inactive: 0.009,inactive: -0.006,inactive: 0.027,inactive: 0.007,inactive: -0.038,inactive: -0.006,inactive: 0.008,inactive: -0.004,inactive: -0.013,inactive: 0.003

# An excerpt from above with just log2 fold change [3], log2 fold change [17] and log2 fold change [10]:
Target	log2 fold change [3]	log2 fold change [17]	log2 fold change [10]
FKBP1A (UniProt P62942)	inactive: 0.005	inactive: 0.038	inactive: 0.15
FGFR1OP (UniProt O95684)	inactive: -0.007	inactive: -0.008	inactive: 0.002
